This experiment concerns the target ZIKV NS5 RdRp (Zika virus, UniProt A0A024B7W1). The experiment is described as follows: Fluorescence-based alkaline phosphatase-coupled polymerase assay, RdRp enzymatic inhibition. The experiment is classed as biochemical. The following applies: compounds incubated with RdRp for 30 min; WT-RdRp; read-out: IC50 to inhibit RdRp activity. On the procedure:
The activity of RdRp was measured by a fluorescence-based alkaline phosphatase-coupled polymerase assay established previously in our lab. Briefly, RdRp catalyzed the transfer of adenosine 5′-monophosphate from γ-(BBT)-ATP to the RNA chain, generating the byproduct BBTppi. Subsequently, BBTppi was hydrolyzed by alkaline phosphatase to fluorescent BBT (ex/em 430/560 nm).
The plasmid pET30a-RdRp, constructed in our laboratory, was transformed into E. coli Transetta (DE3) for RdRp expression and purified. The bacteria were grown in ZYM-5052 culture medium. RdRp with the His tag was loaded on a Ni^2+ HisTrap chelating column and then eluted in a buffer containing imidazole in the ÄKTA system. The purified proteins were verified by SDS-PAGE and Western blotting. RdRp activity was analyzed using a fluorescence-based alkaline phosphatase-coupled polymerase assay. The inhibitory effect of the compounds against RdRp was evaluated using the protocol developed in our laboratory.

Chains of the proteins cited; added tags and fusions are not shown. Residues count along the entry.
UniProt A0A024B7W1, 2786-3423: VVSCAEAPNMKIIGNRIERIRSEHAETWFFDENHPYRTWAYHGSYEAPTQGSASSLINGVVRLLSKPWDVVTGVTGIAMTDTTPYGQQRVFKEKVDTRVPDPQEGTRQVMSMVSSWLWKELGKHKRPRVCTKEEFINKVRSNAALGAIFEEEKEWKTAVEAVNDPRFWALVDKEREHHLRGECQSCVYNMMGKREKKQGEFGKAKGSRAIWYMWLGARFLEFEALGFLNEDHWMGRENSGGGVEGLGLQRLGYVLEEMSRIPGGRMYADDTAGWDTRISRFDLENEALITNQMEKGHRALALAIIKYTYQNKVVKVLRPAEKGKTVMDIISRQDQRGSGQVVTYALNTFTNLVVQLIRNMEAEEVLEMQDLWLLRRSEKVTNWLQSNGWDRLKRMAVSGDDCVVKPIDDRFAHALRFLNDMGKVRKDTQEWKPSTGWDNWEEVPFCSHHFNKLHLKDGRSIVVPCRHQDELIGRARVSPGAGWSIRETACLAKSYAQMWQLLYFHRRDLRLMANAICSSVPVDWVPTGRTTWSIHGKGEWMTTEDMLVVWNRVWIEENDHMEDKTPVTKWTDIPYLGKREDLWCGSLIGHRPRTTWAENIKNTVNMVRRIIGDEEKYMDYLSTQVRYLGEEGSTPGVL

Usually IC50 stands for the concentration at which inhibition is half-maximal. On to `Clc1ccc(CS[C@@H](Cn2ccnc2)c2ccc(Cl)cc2Cl)cc1` [SUL, Sulconazole (nitrate)], for which the IC50 worked out at 15.5 µM.

Values taken from article PMC9915956, “Identification of Potent Zika Virus NS5 RNA-Dependent RNA Polymerase Inhibitors Combining Virtual Screening and Biological Assays” (International Journal of Molecular Sciences, 2023).
